Measured data: PubChem BioAssay AID1671195 (Yale University, 2021)
Shown is one part, drawn at random, of about 22,000 deposited reagents. About 1,510 of all reagents (6.9%) count as active. 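Active includes knockdowns raising or lowering LDL uptake; positive z-scores mean more uptake, negative mean less.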 A number with no mark means an inactive call.

Aim: 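Regulators of LDL receptor activity judged by labelled LDL uptake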 (primary screen)
Cells: human Huh7 hepatoma cells
Reagent: siRNA pool against human genes, 18 nM
Duration: about 2 to 2.5 days of knockdown, then 8 h LDL uptake
Treatment: DiI-labelled LDL at 30 µg/ml for 8 h, in lipoprotein-deficient serum medium
Measured: 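Per-cell DiI-LDL intensity by automated imaging; well means scaled to the plate median and given as a robust z-score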
Scale: robust z-score: higher = more LDL uptake after knockdown
Rule for the call: 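Active when two or more replicates show a robust z-score above 2 or below -2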

gene knocked down | robust z-score, replicate 1 | robust z-score, replicate 2 | robust z-score, replicate 3
SYNPO2 | -0.752 | -0.509 | 0.638
LOC441681 (retired record) | -1.17 | -0.847 | -1.45
ISL2 | 0.125 | 0.502 | -0.585
TRERF1 | 1.51 | 1.38 | 1.02
HDX | -0.283 | -0.395 | 1.23
TSPAN19 | 0.396 | 0.666 | 0.0785
C1orf21 | 1.69 (active) | 2.78 | 3.16
NUF2 | 3.13 | 1.05 | 1.22
HMGCS1P1 | 0.449 | 0.967 | 1.49
LOC152122 (retired record) | 0.0306 | -0.944 | 0.0303
RNF121 | 0.604 | 1.52 | 1.98
EREG | -0.972 | -0.497 | -0.931
VN1R1 | 0.167 | -0.562 | 0.125
NXN | -0.463 | -0.926 | 0.01
LOC440534 (retired record) | 0.451 | -0.286 | 0.102
GLIDR | 0.185 | 0.146 | 0.298
FAM149B1P1 | -0.0946 | 0.436 | -0.122
RAB3A | 0.694 | 0.625 | 0.383
CHCHD3 | 0.754 | -0.391 | 0.574
PEX11A | 1.01 | 0.343 | -0.679
ITFG2 | 0.445 | 0.327 | 0.0108
CYP26B1 | -1.65 | -1.81 | -1.89
MIS18BP1 | 0.45 | 1.37 | 0.74
MIRLET7BHG | -0.759 | -1.09 | -1.06
KCNT2 | 1.83 | 1.38 | 1.59
CALY | 0.0803 | 0.154 | -0.124
LOC339553 (retired record) | -0.179 | 0.266 | 0.246
PPP1R2 | -0.947 | -1.55 | -0.868

Part of the list above, set out differently:
{"gene knocked down": "MIS18BP1", "robust z-score, replicate 1": 0.45, "robust z-score, replicate 2": 1.37, "robust z-score, replicate 3": 0.74}
{"gene knocked down": "MIRLET7BHG", "robust z-score, replicate 1": -0.759, "robust z-score, replicate 2": -1.09, "robust z-score, replicate 3": -1.06}
{"gene knocked down": "KCNT2", "robust z-score, replicate 1": 1.83, "robust z-score, replicate 2": 1.38, "robust z-score, replicate 3": 1.59}
